# Counter-ions that a name gives are not always drawn. ± gives the standard deviation of the averaged measurements. The list shows a part of the results. Most values come without repeats; read them as rough.
# System: RAW 264.7
# Experiment: HMGB1-induced TNF-alpha production relative to HMGB1-stimulated control; higher = more TNF-alpha secretion (less inhibition)
# Conditions: stimulus: HMGB1 5 ug/ml, 18 h
# [1] = compound concentration: 1 ug/ml
SMILES,HMGB1-induced TNF-alpha production [1] [%],HMGB1-induced TNF-alpha production (compound concentration: 3 uM) [%]
CC(C)=CCC/C(C)=C/COc1c2occc2cc2ccc(=O)oc12 [Xanthotoxol geranyl ether],45.6,–
COc1cnc(NS(=O)(=O)c2ccc(N)cc2)nc1,–,84.4
COc1cnc(NS(=O)(=O)c2ccc(N)cc2)nc1 [Sulfameter],–,103
CC(C)Cc1ccc(C(C)C(=O)O)cc1 (racemic) [(±)-Ibuprofen],–,103
O=c1oc2c3c4c(cc2c2c1CCC2)CCCN4CCC3 [Coumarin 106],84.9,–
O=C(O)CCC(=O)Nc1ccc(S(=O)(=O)Nc2nccs2)cc1,–,77.3
O=C(O)CCC(=O)Nc1ccc(S(=O)(=O)Nc2nccs2)cc1 [Succinylsulfathiazole],–,95.7
Cc1cccc(CN2CCN(C(c3ccccc3)c3ccc(Cl)cc3)CC2)c1 (centres undefined) [Meclozine dihydrochloride],–,75.7
Cc1cccc(CN2CCN(C(c3ccccc3)c3ccc(Cl)cc3)CC2)c1 (centres undefined),–,71.2
COc1ccccc1O [Guaiacol],–,91.5 ± 17
CC1CNCCN1S(=O)(=O)c1cccc2cnccc12 (centres undefined),–,71.8
CCCCC(C)(O)C/C=C/[C@H]1[C@H](O)CC(=O)[C@@H]1CCCCCCC(=O)OC (mixture of isomers) [Misoprostol],–,94.8 ± 25
CNCCC(Oc1ccccc1OC)c1ccccc1 (centres undefined) [Nisoxetine hydrochloride],–,104 ± 4.9
CNCCC(Oc1ccccc1OC)c1ccccc1 (centres undefined) [Nisoxetine],–,106
O=NN(CCCl)C(=O)NC1CCCCC1 [Lomustine],–,76.6
Cn1c(=O)ccn([C@@H]2O[C@H](CO)[C@@H](O)[C@H]2O)c1=O [3-Methyluridine],70.9,–
CCOC(=O)C1=C[C@]2(CC)CCCN3CCc4c(n1c1ccccc41)[C@@H]32 [Vinpocetine],–,83.2 ± 23
CC1CN(S(=O)(=O)c2cccc3cnccc23)CCN1 (centres undefined),–,107
COc1ccc(-c2cc(=O)c3c(O)cc(O[C@@H]4O[C@H](CO[C@@H]5O[C@@H](C)[C@H](O)[C@@H](O)[C@H]5O)[C@@H](O)[C@H](O)[C@H]4O)cc3o2)cc1O,–,80.4
O=c1c2cc(O)c(O)cc2oc2cc(O)c([C@@H]3O[C@H](CO)[C@@H](O)[C@H](O)[C@H]3O)c(O)c12 [Mangiferin],78.9,–
C=C1C[C@]23C[C@@]1(O)CC[C@H]2[C@@]12C=C[C@H](O)[C@@](C)(C(=O)O1)[C@H]2[C@@H]3C(=O)O [Gibberellic Acid],48.5,–
c1ccc2[nH]c(-c3cscn3)nc2c1,–,89.7
c1ccc2[nH]c(-c3cscn3)nc2c1 [Tiabendazole],–,57.7
OC[C@@H](O)[C@@H](O[C@@H]1O[C@H](CO)[C@H](O)[C@H](O)[C@H]1O)[C@H](O)[C@@H](O)CO,–,81.3

# Full records from above. Order of values: HMGB1-induced TNF-alpha production [1] [%] | HMGB1-induced TNF-alpha production (compound concentration: 3 uM) [%]
# CC(C)=CCC/C(C)=C/COc1c2occc2cc2ccc(=O)oc12 [Xanthotoxol geranyl ether] is entered as 45.6 | –
# O=c1c2cc(O)c(O)cc2oc2cc(O)c([C@@H]3O[C@H](CO)[C@@H](O)[C@H](O)[C@H]3O)c(O)c12 [Mangiferin] is entered as 78.9 | –

# — the supplement of paper PMC3682954
